Structures can show the parent of a compound that is named as a salt. ± gives the standard deviation of the averaged measurements. The list shows a part of the results. Values are raw readings; no control value is given beside them.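 A single yeast strain with four plasmids, each encoding a fluorescent protein and an amino-acid or uracil biosynthesis gene, seeds the community. Stochastic plasmid loss yields mixed prototroph and auxotroph subpopulations. Fixed cells were counted via automated confocal fluorescence imaging; DMSO-treated wells were the vehicle reference.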
The compounds below were run on Saccharomyces cerevisiae BY4741 SeMeCo community (assay: imaged cell count per well (cells); higher = more cells). Settings: 10 µM; 24 h; SM minimal medium.
Experimental: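 Same SeMeCo high-content imaging drug screen: Selleck FDA-approved drugs at 10 µM, 24 h in SM medium, 384-well plates, 3 replicates.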

Compared with `OCCOc1ccc(/C(=C(/CCCl)c2ccccc2)c2ccccc2)cc1` [Ospemifene], `CC/C(=C(\c1ccccc1)c1ccc(OCCN(C)C)cc1)c1ccccc1` [Tamoxifen] is higher in “imaged cell count per well” value: 21200 ± 5200 for the first, 30100 ± 2500 for the second.

`COc1cc(NC(C)CCCN)c2ncccc2c1` (configuration not stated) [Primaquine Diphosphate] and `COc1ccc2cc(C(=O)O)ccc2c1` [6-Methoxy-2-naphthoic acid] are within error of each other in “imaged cell count per well” value: 22200 ± 10000 for the first, 11500 ± 890 for the second.

`CCCc1nn(C)c2c(=O)[nH]c(-c3cc(S(=O)(=O)N4CCN(C)CC4)ccc3OCC)nc12` [Sildenafil] and `O=C1[C@@H]2[C@H]3CC[C@H](C3)[C@@H]2C(=O)N1C[C@@H]1CCCC[C@H]1CN1CCN(c2nsc3ccccc23)CC1` [lurasidone] are within error of each other in “imaged cell count per well” value: 32200 ± 7500 for the first, 30100 ± 4200 for the second.

`CN(C)[C@@H](CCOc1cccc2ccccc12)c1ccccc1` [Dapoxetine HCl] and `Cc1cc(/C=C/c2ccc3cc(N(C)C)ccc3[n+]2C)c(C)n1-c1ccccc1` [pyrvinium] are within error of each other in “imaged cell count per well” value: 25300 ± 4200 for the first, 25400 ± 5600 for the second.

`CC1(C)S[C@@H]2[C@H](NC(=O)Cc3ccccc3)C(=O)N2[C@H]1C(=O)O.CCN(CC)CCOC(=O)c1ccc(N)cc1` [Penicillin G Procaine] and `C=C1c2cccc(O)c2C(=O)C2=C(O)[C@]3(O)C(=O)C(C(N)=O)=C(O)[C@@H](N(C)C)[C@@H]3[C@@H](O)[C@H]12` [Methacycline HCl] are within error of each other in “imaged cell count per well” value: 24400 ± 3400 for the first, 22300 ± 6300 for the second.

`O=C(O)c1cccnc1Nc1cccc(C(F)(F)F)c1` [Niflumic acid] and `CN(C)CCCN1c2ccccc2CCc2ccc(Cl)cc21` [Clomipramine HCl] are within error of each other in “imaged cell count per well” value: 16800 ± 4800 for the first, 15800 ± 2600 for the second.

Source: the supplement of paper PMC8975748
